In article PMC7819943, “Rice protein-binding microarrays: a tool to detect cis-acting elements near promoter regions in rice” one finds binding signal data, which are given here for 54 sequences.

Amino acid sequences for entries named in this document (tags omitted).
UniProt Q0JBA9, entry or part of it: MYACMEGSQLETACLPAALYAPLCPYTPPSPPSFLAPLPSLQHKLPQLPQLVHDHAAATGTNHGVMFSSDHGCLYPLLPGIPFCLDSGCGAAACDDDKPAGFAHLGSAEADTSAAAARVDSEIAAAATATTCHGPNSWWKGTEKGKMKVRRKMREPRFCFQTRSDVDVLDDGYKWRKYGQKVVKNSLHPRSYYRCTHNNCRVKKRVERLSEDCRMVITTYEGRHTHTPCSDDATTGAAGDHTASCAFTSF

Some of the results follow.

The target in this assay is OsWRKY34 (Oryza sativa, UniProt Q0JBA9 1-250). Briefly: protein-binding microarray (RPBM); PBS, 2% BSA, 51.3 ng/ul salmon testes DNA, 50 uM zinc acetate, 200 nM TF, 25 C, 1 h; high values mean tight binding. To be noted: protein: recombinant; tags: N-terminal polyhistidine and DsRed monomer fusion (pET32a); label: CyDye5-dUTP incorporated in the synthesized complementary strand; 3' TTTTT single-stranded linker to array surface; dsDNA, one strand shown. Put shortly: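 The binding signal is fluorescence intensity per feature, in arbitrary units, read on an Axon 4000B scanner. Polyhistidine- and DsRed-tagged transcription factors (N-terminal fusions) from E. coli BL21-CodonPlus were purified on Ni–NTA and applied at 200 nM for 1 h at 25 °C to a double-stranded, BSA-blocked custom Agilent array in buffer with 50 µM zinc acetate.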
Regarding “CCGCCACACCGGCTCCACCTACCCACCCACGTAATCACGTCGGAGTCACCTAGTGCAG”, the binding signal was 8310 fluorescence intensity (a.u.).

For “GGGTGGGGAAATTTCGTCGTCGCGATGGGCCGGGGCCCACCGGAGTCACCTAGTGCAG”, the binding signal is 11900 fluorescence intensity (a.u.). In the case of “TCGTCGCCCTATTCCTCTTACTCTTCTCCATGGCCATCAACGGAGTCACCTAGTGCAG” it was 10100 fluorescence intensity (a.u.). In the case of “ACATTATGTTTCGATTTTTTATCGCAGGTTTGGAATTCTGCGGAGTCACCTAGTGCAG” it was 8440 fluorescence intensity (a.u.); in that of “GTCTATTGTTTTTCACGTGCACGTTTCCAAACGACTAAAACGGAGTCACCTAGTGCAG”, 8140 fluorescence intensity (a.u.); in that of “TGCCGCGTCCGAGTCCAAAGCCAAACTGTCATCCATCCGCCGGAGTCACCTAGTGCAG”, 8190 fluorescence intensity (a.u.). In the case of “CCTCGGCCTCGAATTTCGTCTCCTCGCCCGCCGCTTGCGCCGGAGTCACCTAGTGCAG” it was 13000 fluorescence intensity (a.u.); in that of “ATATATATATATATATATATATATATATATACAGTTCACACGGAGTCACCTAGTGCAG”, 8620 fluorescence intensity (a.u.). With “GCTATCTTTTCACTCATATCTATACTTATGCTTATAAAATCGGAGTCACCTAGTGCAG”, the binding signal was 9090 fluorescence intensity (a.u.). In the case of “CCTGTGCCGTGCCAGGCTGCCCGTTACTGATAAACTTCGACGGAGTCACCTAGTGCAG” it was 8040 fluorescence intensity (a.u.); in that of “TTAGGTCGGAGTGAGTTTTGATTGTACTACTCCATGTTTACGGAGTCACCTAGTGCAG”, 9330 fluorescence intensity (a.u.); in that of “CTCATTGACATTTTCAGTTGGTAATCAGTACACTTGTTCCCGGAGTCACCTAGTGCAG”, 9990 fluorescence intensity (a.u.). As for “GATGAACTTATTCCTTTTCTTTTCTCGTGAGGCCTAGCAACGGAGTCACCTAGTGCAG”, the figure is 10100 fluorescence intensity (a.u.); as for “CCTAGTTTCCTTCTCTTTCCTCATTTATCACTTGCTACATCGGAGTCACCTAGTGCAG”, 10900 fluorescence intensity (a.u.); as for “TTTGCGTCCTGCAGCTCTCTCTCATCACAGTTTCGCAATGCGGAGTCACCTAGTGCAG”, 9860 fluorescence intensity (a.u.). In the case of “CAACCCTTCTTGCCTTAATCTACACTCTCATTATATTTAACGGAGTCACCTAGTGCAG”, the binding signal was 8740 fluorescence intensity (a.u.). As to “TACAATCATTGTTCTCCTCAGACTCGCCGCCAACCAATTTCGGAGTCACCTAGTGCAG”, the binding signal is 9630 fluorescence intensity (a.u.). As for “ACCTTGCCCTGGGACTGCACCTTCACCTTCTCCTTCTCCACGGAGTCACCTAGTGCAG”, the figure is 8040 fluorescence intensity (a.u.); as for “AATAGTTGTCTCTTCATATTTACTGCAACACTCATATTAACGGAGTCACCTAGTGCAG”, 8200 fluorescence intensity (a.u.). As for “AAACCTTTTGTGCGTGCATCTCGTCTGGCATTTGTCTCTCCGGAGTCACCTAGTGCAG”, the figure is 8200 fluorescence intensity (a.u.); as for “CTCATCATTCCTAACCATTTTCTCAGCCACCCATCTATCTCGGAGTCACCTAGTGCAG”, 9040 fluorescence intensity (a.u.).

On to “TTTGTTTTGTTATTACACTAGTTTAATACTCGCTCCATACCGGAGTCACCTAGTGCAG”, for which the binding signal was 8860 fluorescence intensity (a.u.). As to “CCTCCTAGGCTACACCTCACCCTCCCTCTCTGATACACATCGGAGTCACCTAGTGCAG”, the binding signal is 8550 fluorescence intensity (a.u.). Take “GCCTGTCTTGAACATTTCCTTGTTCTCCGTCCTTGAGCACCGGAGTCACCTAGTGCAG”: the binding signal was 10700 fluorescence intensity (a.u.). As for “GCCACGTGGCACCCGCCCATTGCTCGTCCACCTCACATCTCGGAGTCACCTAGTGCAG”, the figure is 8030 fluorescence intensity (a.u.); as for “AACTCTCGGCCTTAGCTCCTACCGTCACTCCCACGTGTGCCGGAGTCACCTAGTGCAG”, 8450 fluorescence intensity (a.u.); as for “TTTGCTTTTGTTTCCAAGTCTGTTTCCTGTAATCTCATTGCGGAGTCACCTAGTGCAG”, 9930 fluorescence intensity (a.u.). In the case of “ACACGACCAACCCTGCATCCATTGGCTCCAACCTAGACCTCGGAGTCACCTAGTGCAG” it was 8610 fluorescence intensity (a.u.). Take “TTTCTGCGCTACGTGCTCGCCATGTCGTCCTCGTCACAAACGGAGTCACCTAGTGCAG”: the binding signal was 9300 fluorescence intensity (a.u.). In the case of “GTCCGATCACTCGATCATTCGTTGACTTTAACCGTGCTGTCGGAGTCACCTAGTGCAG”, the binding signal is 15500 fluorescence intensity (a.u.). In the case of “CTTATTTTCTTTTCTAATTTTAGATTTTATTTTATTATTACGGAGTCACCTAGTGCAG” it was 8360 fluorescence intensity (a.u.); in that of “TAGCCATCGACCACATGAACGAGCTTCACACACATATATTCGGAGTCACCTAGTGCAG”, 10700 fluorescence intensity (a.u.); in that of “CGATTTGGGAGCAACGTTGACGATCCGACTACAACCTTACCGGAGTCACCTAGTGCAG”, 8320 fluorescence intensity (a.u.). In the case of “ATATTTGCAGTACATATTGTGACATACGACCTCCGTCCTACGGAGTCACCTAGTGCAG” it was 8690 fluorescence intensity (a.u.).

In the case of “TACCCGTGTTCTGTTTTAGTGAAGGATACGAAACATTTTTCGGAGTCACCTAGTGCAG”, the binding signal was 8280 fluorescence intensity (a.u.). In the case of “ACCAAGAACTCTCTTCTTTTCTGTCACTTCTCTTCCATTCCGGAGTCACCTAGTGCAG” it was 11000 fluorescence intensity (a.u.); in that of “TGATACGTCACATACCTACCTACATCTACATCTGGTTAGCCGGAGTCACCTAGTGCAG”, 8950 fluorescence intensity (a.u.); in that of “CCGCTCGACCATCCGCGCTCTTTACCTGCTATTAATTCGCCGGAGTCACCTAGTGCAG”, 9080 fluorescence intensity (a.u.). As for “GGGGTTATTTTAGTCCATTGAAGTGGGAAAAATGGTGAAACGGAGTCACCTAGTGCAG”, the figure is 8660 fluorescence intensity (a.u.); as for “CTCCTGCTGACGCGCCCCGTCGCCGCCGCTCGCTTGCCGCCGGAGTCACCTAGTGCAG”, 8810 fluorescence intensity (a.u.). As for “ATTTACTCATATATTTTTATAATGTATTTGTCTTATGTTACGGAGTCACCTAGTGCAG”, the figure is 8450 fluorescence intensity (a.u.); as for “GCTCTGTGCCTCATCAAGCTCTATCCAAGCTCTCGCCATGCGGAGTCACCTAGTGCAG”, 8210 fluorescence intensity (a.u.); as for “TTCTGAAATGTTTGCTCGATCAACGTCTGCTGCACGGCTTCGGAGTCACCTAGTGCAG”, 8910 fluorescence intensity (a.u.). Consider “ATCTTTCTATTGTTTGTTCAGTATAGCCAATATGTATAACCGGAGTCACCTAGTGCAG”, for which the binding signal was 8710 fluorescence intensity (a.u.). As for “CCAACGAACCAGTTTTTTTTCTCGTTTCGATCTCCCGTCCCGGAGTCACCTAGTGCAG”, the figure is 8090 fluorescence intensity (a.u.); as for “GGCTCTTTGCATGCATGTCAACATTTTTCTCCAACTATTACGGAGTCACCTAGTGCAG”, 10400 fluorescence intensity (a.u.). Turning to “CCCAGTCCCAGTGGACTATATCGCGCGTTTTTTGGCGGGGCGGAGTCACCTAGTGCAG”, the binding signal is 10700 fluorescence intensity (a.u.). As for “GGCATCTTCTCACACTCTAGCTCACAGCTTCGCGGTTTCCCGGAGTCACCTAGTGCAG”, the figure is 8260 fluorescence intensity (a.u.); as for “TTCCTCATCCTCTCACCGCCGCCGCCGCCGCGAGCGATTTCGGAGTCACCTAGTGCAG”, 8320 fluorescence intensity (a.u.); as for “TTACTGTTGACTTGCAGTTCTGGGCACTTTGTATTTAGTTCGGAGTCACCTAGTGCAG”, 10000 fluorescence intensity (a.u.). In the case of “TGGCGAGCACACCACCACCGCATCACCGGTCCACCGCTCTCGGAGTCACCTAGTGCAG” it was 8100 fluorescence intensity (a.u.); in that of “AGCCTCACTTCTTGTTGCTTTCAAGCTGTTTACTTACGCTCGGAGTCACCTAGTGCAG”, 10700 fluorescence intensity (a.u.). In the case of “AATGCCCGAACACTCCATGCGACACCCTATGTAATAACCGCGGAGTCACCTAGTGCAG” it was 8350 fluorescence intensity (a.u.); in that of “AGATTAGTAGTAAAAGGGTAGGGTATTAGTGGCGTGATTACGGAGTCACCTAGTGCAG”, 8570 fluorescence intensity (a.u.).
